Test results: article PMC3628841
Results are given in words; binding and its absence hold for the method and conditions named. Binding seen in cells or lysates may run through a third protein. Some binding calls cover weakened binding; strength is not graded here.

Amino acid sequences for entries named in this document (tags omitted). Residues count along the entry.
UniProt P07174, residues 30-425: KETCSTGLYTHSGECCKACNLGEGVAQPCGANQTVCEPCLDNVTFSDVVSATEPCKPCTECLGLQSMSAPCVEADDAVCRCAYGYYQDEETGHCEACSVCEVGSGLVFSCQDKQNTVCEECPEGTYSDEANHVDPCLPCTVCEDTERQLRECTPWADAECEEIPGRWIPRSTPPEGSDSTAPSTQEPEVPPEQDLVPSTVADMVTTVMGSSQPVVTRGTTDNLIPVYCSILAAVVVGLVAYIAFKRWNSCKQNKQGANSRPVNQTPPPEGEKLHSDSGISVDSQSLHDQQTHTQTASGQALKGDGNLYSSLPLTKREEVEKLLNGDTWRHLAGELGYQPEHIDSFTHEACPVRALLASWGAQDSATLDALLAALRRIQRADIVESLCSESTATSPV
UniProt P08138, residues 29-427: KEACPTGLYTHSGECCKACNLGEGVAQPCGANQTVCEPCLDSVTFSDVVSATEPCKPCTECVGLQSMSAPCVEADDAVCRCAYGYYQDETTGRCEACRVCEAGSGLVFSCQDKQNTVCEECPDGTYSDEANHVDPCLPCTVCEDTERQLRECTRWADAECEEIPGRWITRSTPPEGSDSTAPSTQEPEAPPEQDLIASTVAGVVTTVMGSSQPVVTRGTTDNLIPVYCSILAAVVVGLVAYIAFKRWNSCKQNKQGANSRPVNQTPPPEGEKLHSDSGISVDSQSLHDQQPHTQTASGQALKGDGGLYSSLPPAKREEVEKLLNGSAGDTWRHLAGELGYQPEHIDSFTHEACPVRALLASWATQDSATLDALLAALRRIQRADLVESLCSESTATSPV

T1: endogenous rat NgR1 (rat (endogenous in brain)) (UniProt Q99M75)
T1 sequence: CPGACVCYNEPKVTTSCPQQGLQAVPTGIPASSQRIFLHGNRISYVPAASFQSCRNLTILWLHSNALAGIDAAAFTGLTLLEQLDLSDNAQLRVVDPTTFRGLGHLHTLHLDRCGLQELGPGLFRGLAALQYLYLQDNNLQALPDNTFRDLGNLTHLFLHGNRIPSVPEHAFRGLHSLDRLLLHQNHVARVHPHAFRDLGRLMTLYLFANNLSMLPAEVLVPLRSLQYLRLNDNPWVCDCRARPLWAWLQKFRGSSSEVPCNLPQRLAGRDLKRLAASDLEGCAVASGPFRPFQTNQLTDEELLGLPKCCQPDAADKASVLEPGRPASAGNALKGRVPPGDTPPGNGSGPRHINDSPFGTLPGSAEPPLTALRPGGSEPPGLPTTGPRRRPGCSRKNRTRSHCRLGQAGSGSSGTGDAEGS

T2: endogenous rat AMIGO3 (rat (endogenous in brain)) (UniProt Q80ZD5)
T2 sequence: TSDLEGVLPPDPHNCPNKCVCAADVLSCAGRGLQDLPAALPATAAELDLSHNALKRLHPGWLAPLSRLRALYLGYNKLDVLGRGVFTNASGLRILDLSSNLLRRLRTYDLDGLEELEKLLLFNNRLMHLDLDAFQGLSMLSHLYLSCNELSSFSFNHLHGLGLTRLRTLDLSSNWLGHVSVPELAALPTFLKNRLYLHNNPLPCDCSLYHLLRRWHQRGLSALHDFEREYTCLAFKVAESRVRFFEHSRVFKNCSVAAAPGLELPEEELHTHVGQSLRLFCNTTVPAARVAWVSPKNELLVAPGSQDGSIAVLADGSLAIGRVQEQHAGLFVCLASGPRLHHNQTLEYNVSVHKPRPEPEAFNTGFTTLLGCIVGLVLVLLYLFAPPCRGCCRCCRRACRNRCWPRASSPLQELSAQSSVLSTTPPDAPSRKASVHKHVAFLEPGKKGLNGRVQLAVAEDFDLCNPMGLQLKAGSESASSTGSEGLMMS

T3: endogenous human AMIGO3 (human (endogenous in brain)) (UniProt Q86WK7)
T3 sequence: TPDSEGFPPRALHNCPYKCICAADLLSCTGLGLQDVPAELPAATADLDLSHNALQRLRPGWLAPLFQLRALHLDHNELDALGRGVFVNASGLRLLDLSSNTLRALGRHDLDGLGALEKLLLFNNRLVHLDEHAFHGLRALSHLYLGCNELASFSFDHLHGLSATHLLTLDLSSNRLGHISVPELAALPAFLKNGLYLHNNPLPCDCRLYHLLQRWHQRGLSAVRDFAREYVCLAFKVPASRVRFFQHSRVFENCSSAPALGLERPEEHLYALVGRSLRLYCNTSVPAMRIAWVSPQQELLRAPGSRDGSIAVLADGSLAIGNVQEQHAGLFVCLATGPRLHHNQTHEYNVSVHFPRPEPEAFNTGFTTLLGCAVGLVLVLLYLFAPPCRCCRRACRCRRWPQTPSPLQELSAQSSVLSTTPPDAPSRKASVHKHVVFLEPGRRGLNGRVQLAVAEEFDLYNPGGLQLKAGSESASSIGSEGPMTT

T4: endogenous human NgR1 (human (endogenous in brain)) (UniProt Q9BZR6)
T4 sequence: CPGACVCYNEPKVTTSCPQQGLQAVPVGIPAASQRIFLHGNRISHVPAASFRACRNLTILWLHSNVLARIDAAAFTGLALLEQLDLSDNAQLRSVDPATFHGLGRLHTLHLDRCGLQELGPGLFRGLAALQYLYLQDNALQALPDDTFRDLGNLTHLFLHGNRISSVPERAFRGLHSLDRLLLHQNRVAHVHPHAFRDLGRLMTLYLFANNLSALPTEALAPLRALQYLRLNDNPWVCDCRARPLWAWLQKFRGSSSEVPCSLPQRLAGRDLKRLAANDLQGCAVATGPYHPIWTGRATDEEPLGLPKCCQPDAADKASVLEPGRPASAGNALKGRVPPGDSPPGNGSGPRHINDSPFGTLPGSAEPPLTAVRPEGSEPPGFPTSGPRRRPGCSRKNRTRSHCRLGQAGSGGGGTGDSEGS

B1: endogenous rat NgR1 (receptor, UniProt Q99M75 27-447)
chain: T1 sequence
B2: endogenous human NgR1 (receptor, UniProt Q9BZR6 27-447)
chain: T4 sequence

Assays:
Experiment in all cases: co-IP; endogenous proteins from adult rat and human brain lysates; Protein G Dynabeads coated with goat anti-AMIGO3, rabbit anti-NgR1 or mouse anti-NGFR (p75); 30 min at room temperature; western blot for AMIGO3, p75 and NgR1; IgG as control antibody
[1] = molecular target: T1, endogenous rat NgR1 (rat (endogenous in brain))
[2] = molecular target: T2, endogenous rat AMIGO3 (rat (endogenous in brain))
[3] = molecular target: T3, endogenous human AMIGO3 (human (endogenous in brain))
[4] = molecular target: T4, endogenous human NgR1 (human (endogenous in brain))

Molecule | binding [1] | binding [2] | binding [3] | binding [4]
endogenous rat p75 (from UniProt P07174 30-425) (receptor) | binds | binds |  | 
endogenous human p75 (from UniProt P08138 29-427) (receptor) |  |  | binds | binds
B1 |  | binds |  | 
B2 |  |  | binds | 
